Primary screen of a compound library

Measurements from “University of Dundee, Small-Polar-MMV Screening Library” (2021), ChEMBL document CHEMBL3988442.

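Assay of Toxoplasma gondii numbers, read through their beta-galactosidase reporter with a colour substrate. Concentration: 50 µM. The record gives no direction; the compounds picked for IC50 retests had high values, so higher reads as fewer parasites. About 18,000 compounds were tested under these conditions; 0.94% (about 170) showed 50% or more at least once.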

The filed quantity is “Percent Effect” (%). The record does not define 0% and 100%; most values in the screen are far below 50% and negative numbers occur (in some assays of this library far below -100). This is an unselected part of the compounds tested.

SMILES	percent effect
CC(C)Oc1ccccc1OCCN1CC(O)C1	-4.961
CC(=O)NCCCSCc1cnn(-c2ccccc2)c1	-0.8989
CN(C)CCC(=O)Nc1cccc(-c2ncco2)c1	22.41
O=C1NCCCC1NC1CCSCC1 (stereo not drawn)	-4.817
CC1=NN(c2ccc(C(=O)n3cnnc3N)cc2)CC1	-6.619
CN(C)S(=O)(=O)N1CC(=O)NCC1(C)C	14.19
CN(C)CC(=O)Nc1ccc2c(c1)C(O)CC2(C)C (stereo not drawn)	4.556
CNC(=O)Cn1cnc(N)n1	-10.75
CC(=O)c1ccc(NC(N)=O)cc1Cl	18.42
Cc1cc(S(=O)(=O)Nc2cccnc2N(C)C)c(C)o1	13.72
CO[C@H]1CN(C(C)C)C[C@@H]1NC(=O)c1nc(C)c[nH]1	-2.42
Cc1occc1C(=O)NCC(F)(F)F	-0.2412
COc1cccc(NC(=O)CN2CCN(C)CC2)c1	-14.79
CCOC(=O)c1ccc(NS(=O)(=O)CC)cc1	3.824
Cc1ccccc1C(C)N1CCNC(=O)CC1 (stereo not drawn)	-7.569
CCC(CC#N)NCc1cccnc1C (stereo not drawn)	-2.814
O=C(c1cccc(Cl)c1Cl)N1CCNCC1	-14.33
NCc1ccccc1S(N)(=O)=O	-4.202
NCc1nnc(CCc2ccccc2)o1	-5.239
Oc1ccc(OCCN2CCOCC2)cc1	7.211
CC1(C#N)CCNCC1	2.164
COC(=O)c1ccc(CN(C)CCN2CCCC2=O)o1	11.64
CNCC(=O)NC(C)c1ccc(F)c(OC)c1 (stereo not drawn)	-8.658
O=c1cc(CN2CCOCC2)nc2sccn12	2.592
CN1CCNS1(=O)=O	-9.723
O[C@@H]1CNC[C@H]1n1ccnn1	-8.548
COC(=O)C(N)CSc1cc(C)nc2ccccc12 (stereo not drawn)	9.809
COC(=O)Cc1ccc(-n2cnnn2)cc1	5.139
CCNc1ncc(C(=O)N2CCCO2)s1	-2.003
CCN(CC1CCCCO1)C(=O)Cc1cccnc1 (stereo not drawn)	-9.16
CN(CC(N)=O)C(=O)Cc1cnn(-c2ccccc2)c1	-1.701
NC1CCCN(c2ccccn2)C1 (stereo not drawn)	-0.212
Cc1csc(CNc2ccc(OCCO)nc2)n1	-3.507
N#Cc1ccc(CN2CCCC2=O)cc1	8.336
CSc1ncc(CN2C[C@@H]3CCC[C@H](C2)C(=O)N3)cn1	-0.08729
Cc1cc(C(=O)Nc2ccc(OCC(N)=O)cc2)on1	12.73
CNCC1(O)CCOCC1	1.402
CN(C)C(=O)CCc1cccnc1	18.35
O=S(=O)(c1ccco1)N1CCSC2(CCOCC2)C1	11.81
NC(=O)c1csc(C(=O)Nc2cnn(CC(F)F)c2)c1	-7.877
CC(NCC(C)(C)C(N)=O)c1ccc(S(C)(=O)=O)cc1 (stereo not drawn)	2.223
CC(C)[C@H](N)C(=O)N1CCOC2(CCOCC2)C1	-3.93
C[C@@H]1CN(C(=O)c2csc(CN(C)C)n2)C[C@]1(C)O	11.61
NCC(CO)c1ccc(F)cc1 (stereo not drawn)	-13.58
CC[C@H](C)[C@H](N)C(=O)NCCCc1ccncc1	-5.834
COc1ccc2c(c1)CCCC2N (stereo not drawn)	9.435
O=C(c1ccc(OCC2CC2)cc1)N1CC(O)C1	-4.783
NCc1cc(C2CC2)cs1	0.5541
CNC1CCN(C(=O)OC(C)(C)C)C1 (stereo not drawn)	12.83
CNC(CO)C(C)(C)C (stereo not drawn)	-1.663
Cc1cccc(C)c1-n1nnnc1SCC(N)=O	-27.4
Cc1ccc(S(=O)(=O)CC(=O)NCc2ccco2)cc1	-3.9
Cc1ccsc1CN(C)C(=O)c1ccc(=O)n(C)c1	3.979
CCCS(=O)(=O)NCC(O)C1CCCC1 (stereo not drawn)	44.43
COCCN(C)CC(=O)N1C[C@@H](C)[C@](O)(C2CC2)C1	3.042
O=C(Cn1cc(Br)cn1)NC1CCc2nccn2C1 (stereo not drawn)	-9.747
CC(=O)N1CC(NC(=O)C2=CCCCCC2)C1	2.983
CCN(C(=O)c1ccc(N)nc1)[C@H]1COC[C@@H]1O	0.9833
CCOCC(=O)N(Cc1ccc(O)c(OC)c1)C1CC1	-4.406
CC(C)CCNC(=O)c1ccccc1S(C)(=O)=O	1.67
NC(=O)C1CCN(CCCNC(=O)c2cn[nH]c2)CC1	3.867
COC(=O)[C@@H]1C[C@@H](O)CN1Cc1ccccc1N(C)C	3.52
CCc1noc(C)c1C(=O)NCC(C)(O)c1ccco1 (stereo not drawn)	4.676
CCc1nc(CCN)cs1	-8.889
NC1CCCN(c2noc(-c3ccccc3)n2)CC1 (stereo not drawn)	7.451
O=C(CN1CCNCC1)c1ccccc1Cl	-6.338
CN1CCN(CNC(=O)c2cnccn2)CC1	-20.48
CN(C)C1CCN(c2ccc(N)nc2)CC1	26.68
O=C(NC1CCCCNC1=O)c1cc(Br)c[nH]1 (stereo not drawn)	-14.31
COCCN(C)CCCNC(=O)c1cc(C2CC2)on1	17.68
Cc1ccc(NC(=O)NC(C)CS(C)(=O)=O)cc1 (stereo not drawn)	-6.287
CC1=NOC(C)(CNS(=O)(=O)c2ccc(F)cc2)C1 (stereo not drawn)	-26.81
CCc1noc(C2=NNC(=O)CC2)n1	0

Some entries from above, unchanged:

SMILES,percent effect
CCOCC(=O)N(Cc1ccc(O)c(OC)c1)C1CC1,-4.406
NC1CCCN(c2noc(-c3ccccc3)n2)CC1 (stereo not drawn),7.451
CCc1noc(C2=NNC(=O)CC2)n1,0
O=C(c1ccc(OCC2CC2)cc1)N1CC(O)C1,-4.783
CNC1CCN(C(=O)OC(C)(C)C)C1 (stereo not drawn),12.83
CC(=O)N1CC(NC(=O)C2=CCCCCC2)C1,2.983
CNC(=O)Cn1cnc(N)n1,-10.75